Assay results taken from PubChem BioAssay AID720576 (National Center for Advancing Translational Sciences (NCATS), 2013).
The shares of active, inactive and inconclusive entries below differ from those in the screen. A potency beside an inconclusive call is a rough fit, not a confirmed value. Activity calls are given as the source filed them. Calls come from the whole dose curve; as a rule, active = well fitted inhibition curve with a large enough effect; inconclusive = small, poorly fitted or top-dose-only effect; inactive = no such curve, though single readings can be large or run the other way.

assay: qHTS Assay for Inhibitors of Hepatitis C Virus (HCV): Cytotoxicity Counterscreen for Cherry-picked Compounds; conditions: HCV host cell line cytotoxicity counterscreen; activity change, negative = cytotoxicity: at 41.8 µM (top of the series)
From the text: Hepatitis C virus (HCV) infects about 200 million people in the world. Many infected people progress to chronic liver disease including cirrhosis with a risk of developing liver cancer. To date, there is no effective vaccine for hepatitis C. Current therapy based on interferon is only effective in about half of the patients and is associated with significant adverse effects. The fraction of people with HCV who can complete a successful treatment is estimated to be no more than 10 percent. Recent development of direct-acting antivirals against HCV, such as protease and polymerase inhibitors, is promising but still requires combination with peginterferon and ribavirin for maximal efficacy. In addition, these agents are associated with high rate of resistance and many have significant side effects. Due to the lack of a culture system for infectious HCV, the search for new HCV drugs has been greatly hampered. […] High-throughput screening (HTS) with an infectious HCV system would cover the complete spectrum of potentially druggable targets in all stages of HCV lifecycle, and would have more biological relevance than other cell-based assays. Moreover, targeting several key processes in the viral life cycle may not only increase antiviral efficacy; more importantly, it may also reduce the capacity of the virus to develop resistance to the compound.
The goal of this project is to identify novel HCV inhibitors as new therapies for hepatitis C, using a highly sensitive and specific assay platform based on a HCV infectious cell culture system established in the laboratory and adapted for high-throughput HCV drug screen. The primary assay was used to screen the MLPCN compound library and potential inhibitors were cherry picked for confirmation and further characterization. To evaluate the cytotoxic effect of the selected compounds, a secondary cell based counterscreen using the Promega CellTiter Glo reagent and Huh cell line was developed. The data herein is the result of the Cytotoxicity counterscreen against the cherry picked compounds. No significant activity is the desired outcome for this assay.
NIH Chemical Genomics Center [NCGC]
NIH Molecular Libraries Probe Centers Network [MLPCN]
Assay Submitter (PI): Jake Liang, NIDDK
Cells were plated in a 1536-wel tissue culture grade plates at a final concentration of 1,000 cells/well (3 uL volume). The assay plate was culture for 4 h. Then 23 nL of compounds from the library collection was added to each well and incubated for 44 h at 37C, 5% CO2. A volume of 4.5 uL CellTiterGlo reagent was to each well and the plates were incubated at room temperature for 15 min. The luminescence signal was read for 15 sec using the PerkinElmer ViewLux plate reader.
% is set by controls: 0 for no effect and ±100 for the full control effect.
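Note: 44 h compound exposure; nearly all actives have a fitted effect of over 55% in size.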

Question: Which Potency does the source give for Cc1cc(C)cc(N=c2c([N+](=O)[O-])nn(-c3ccc(Cl)cc3)n2O)c1 here?
Answer: inactive

Question: Which Potency does the source give for Cc1ccccc1-c1nc(CN2CCC(C(=O)NCCCN3CC(C)CC(C)C3)CC2)c(C)o1 (stereo not given) here?
Answer: inconclusive: 0.25 µM [inhibitor, partial curve, poor fit]

Question: With Oc1ccccc1N=Nc1nc(-c2ccccc2)c(-c2ccccc2)[nH]1 as the molecule, how does the Potency read?
Answer: inactive

Question: With CCc1ccc(OCC(O)CN2CCC(CN3C(=O)c4cccc5cccc(c45)C3=O)CC2)cc1 (stereo not given) as the molecule, how does the Potency read?
Answer: active: 14.1 µM

Question: For CC#CCOC(=O)c1c(C)nc2sc3c(c2c1N)CCC(O)C3 (stereo not given), which Potency is on record?
Answer: inconclusive: 44.5 µM [inhibitor, single point]

Question: With COCCCNCCOCCOc1ccccc1-c1ccccc1 as the molecule, how does the Potency read?
Answer: inconclusive: 0.0887 µM [inhibitor, full curve, poor fit]

Question: For N#Cc1c2ccc(O)cc2n2ccccc12, which Potency is on record?
Answer: inactive

Question: For Cc1cccc(CN2CCN(CC(=O)NCCCN3CCN(c4ccc(F)cc4)CC3)C2=O)c1, which Potency is on record?
Answer: inconclusive: 25 µM [inhibitor, partial curve, poor fit]

Question: With O=C(Nc1ccc(Cl)cc1)N[C@@H]1c2c(ccc3ccccc23)OC[C@@H]1CO as the molecule, how does the Potency read?
Answer: inconclusive: 0.125 µM [inhibitor, single point]

Question: For Cc1ccccc1Oc1nc(-c2ccccn2)nc2ccccc12, which activity change, negative = cytotoxicity is on record?
Answer: inconclusive: -45.5% [inhibitor]

Question: With Cc1cccc(CS(=O)(=O)c2ncc(Cl)c(C(=O)Nc3c(C)cccc3C)n2)c1 as the molecule, how does the Potency read?
Answer: active: 28 µM

Question: With C/C(=N\NC(=O)C(C)n1nc(C)c([N+](=O)[O-])c1C)c1ccccc1O (stereo not given) as the molecule, how does the Potency read?
Answer: inconclusive: 11.2 µM [inhibitor, full curve, poor fit]

Question: Which Potency does the source give for CCn1c2c(c(=N)c3ccccc31)CCC2 here?
Answer: inconclusive: 22.3 µM [inhibitor, partial curve]

Question: Which Potency does the source give for COc1cc2c(cc1NC(=O)COC(=O)CNS(=O)(=O)c1ccc(C)cc1)oc1ccccc12 here?
Answer: inactive

Question: With O=C(N/N=C/c1ccc[nH]1)c1ccc(Cl)cc1 as the molecule, how does the Potency read?
Answer: active: 14.1 µM

Question: Which Potency does the source give for COc1cc2c(cc1NC(=O)C(Cl)Cl)-c1ccc(NC(=O)C(Cl)Cl)cc1C2 here?
Answer: inconclusive: 22.3 µM [inhibitor, single point]

Question: For OC(c1cc(-c2ccc(C(F)(F)F)cc2)nc(C(F)(F)F)c1)C1CCCCN1 (stereo not given), which Potency is on record?
Answer: inconclusive: 31.5 µM [inhibitor, single point]

Question: Which Potency does the source give for O=C(Nc1ncc(Cc2ccc(C(F)(F)F)cc2)s1)c1ccc(-c2cccc([N+](=O)[O-])c2)o1 here?
Answer: inconclusive: 28 µM [inhibitor, partial curve, poor fit]

Question: Which Potency does the source give for O=C(Nc1nc(-c2ccc(Cl)s2)cs1)c1ccncc1 here?
Answer: inconclusive: 7.05 µM [inhibitor, partial curve]

Question: With O=C(Cc1csc(Nc2nc(=S)[nH]c3ccccc23)n1)N1CCN(c2cccc(C(F)(F)F)c2)CC1 as the molecule, how does the Potency read?
Answer: active: 12.5 µM

Question: Which Potency does the source give for Cc1ccc(NC(=O)CCC2CC(C)(C)OC2=O)cc1 (stereo not given) here?
Answer: inactive

Question: Which Potency does the source give for O=C(/C=C\c1ccc2c(c1)OCO2)Nc1c2c(nn1-c1ccc(Cl)cc1)CSC2 here?
Answer: inactive

Question: Which Potency does the source give for COc1ccc(CNc2ncnc3cc(Cl)ccc23)cc1 here?
Answer: inconclusive: 3.15 µM [inhibitor, full curve, poor fit]

Question: With Cc1ccc(N(C(=O)CCl)C(C(=O)NC2CCCCC2)c2cccnc2)cc1C (stereo not given) as the molecule, how does the Potency read?
Answer: active: 0.396 µM

Question: For C/C(=N/Nc1nc(-c2ccccc2)cc(-c2ccc(F)cc2)n1)c1cccc(N)c1, which Potency is on record?
Answer: inconclusive: 28 µM [inhibitor, single point]

Question: For COC(=O)c1ccc2c(c1)C(C)(C)C(/C=C/c1ccc(O)cc1)=[N+]2C, which Potency is on record?
Answer: active: 8.87 µM

Question: With COC(=O)c1cn(-c2ccccc2)nc1-c1ccc(OC)c(OC)c1 as the molecule, how does the Potency read?
Answer: inactive

Question: With COc1ccc(Nc2nc(N)nc(CCl)n2)cc1 as the molecule, how does the Potency read?
Answer: active: 2.5 µM

Question: With COc1cc(/C=N/n2nnnc2Nc2ccccc2)cc(OC)c1OC as the molecule, how does the Potency read?
Answer: inactive

Question: For COC(=O)c1c(C(=O)OC)c2cccc3cc(-c4ccccc4)c4ccc1c4n32, which Potency is on record?
Answer: inconclusive: 28 µM [inhibitor, partial curve, poor fit]

Question: For O=c1c2ccccc2nc2n1CCN2Cc1ccc(Cl)cc1, which Potency is on record?
Answer: inconclusive: 9.95 µM [inhibitor, partial curve, poor fit]

Question: Which Potency does the source give for CNC(=S)Nc1ccc(N2CCN(c3ccc(C(F)(F)F)cn3)CC2)nc1 here?
Answer: inconclusive: 8.87 µM [inhibitor, partial curve, poor fit]

Question: Which Potency does the source give for C[C@@H](CSc1ccc(Br)cc1)CN1CC[C@H](NC(=O)OCc2ccccc2)CCC1=O here?
Answer: inactive

Question: Which Potency does the source give for Cc1ccc(OCCCCNC2CCCC(C)C2C)c(C)c1 (stereo not given) here?
Answer: inconclusive: 28 µM [inhibitor, single point]

Question: Which Potency does the source give for CC1(C)Oc2ccc3ccc(=O)oc3c2-c2cn[nH]c21 here?
Answer: inconclusive: 17.7 µM [inhibitor, partial curve, poor fit]

Question: With O=C(N/N=C1\CCCc2c1[nH]c1ccc(Cl)cc21)c1ccncc1 as the molecule, how does the Potency read?
Answer: inconclusive: 25 µM [inhibitor, partial curve, poor fit]

Question: For Cc1cc2[nH]c3c(c[n+](C)c4ccccc34)c2cc1C, which Potency is on record?
Answer: inconclusive: 31.5 µM [inhibitor, single point]

Question: Which Potency does the source give for CCOc1cc(/C=C2/SC(=S)NC2=O)ccc1OC(=O)c1ccco1 here?
Answer: inactive

Question: Which Potency does the source give for CNC(=O)NC(=O)C(C)OC(=O)c1c2c(nc3ccccc13)/C(=C/c1cccs1)CC2 (stereo not given) here?
Answer: active: 17.7 µM

Question: For CC(Nc1cc(N2CCNCC2)ccc1[N+](=O)[O-])c1ccccc1 (stereo not given), which Potency is on record?
Answer: inactive
